This series is described as follows: peptide synthesis. To be noted: late stage modification step.

Consider “Desmethyl-vancomycin-Gly-p-n-Octyloxybenzyl”, for which the step yield came out at 40%.
